From paper PMC9730227
No constants are given. Whether binding was seen depends on the method and setting. In cells and extracts the contact can be indirect. Some results given as binding are weak or reduced against the parent protein; the word gives no strength.

Chains of the proteins cited; added tags and fusions are not shown.
UniProt Q9ULZ3: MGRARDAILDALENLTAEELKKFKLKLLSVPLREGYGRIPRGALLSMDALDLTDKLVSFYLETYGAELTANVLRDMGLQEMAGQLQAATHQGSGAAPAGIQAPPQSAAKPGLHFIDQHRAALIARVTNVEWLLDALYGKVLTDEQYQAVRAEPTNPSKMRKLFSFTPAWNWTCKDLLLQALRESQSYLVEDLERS
UniProt P29466: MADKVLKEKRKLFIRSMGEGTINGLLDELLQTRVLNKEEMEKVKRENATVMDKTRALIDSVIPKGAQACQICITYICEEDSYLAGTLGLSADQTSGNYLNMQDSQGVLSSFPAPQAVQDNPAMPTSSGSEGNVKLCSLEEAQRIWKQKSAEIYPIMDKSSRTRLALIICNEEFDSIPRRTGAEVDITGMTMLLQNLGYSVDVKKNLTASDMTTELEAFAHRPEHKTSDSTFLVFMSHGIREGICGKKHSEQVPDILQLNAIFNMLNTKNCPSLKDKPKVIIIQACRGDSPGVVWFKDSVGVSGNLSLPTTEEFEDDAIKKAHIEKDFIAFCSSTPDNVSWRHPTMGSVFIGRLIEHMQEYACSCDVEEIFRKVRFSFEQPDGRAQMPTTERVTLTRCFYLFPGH

B1: caspase-1 (pro-CASP1), mouse, endogenous in bone marrow-derived macrophages (protein, UniProt P29452 1-402)
chain: MADKILRAKRKQFINSVSIGTINGLLDELLEKRVLNQEEMDKIKLANITAMDKARDLCDHVSKKGPQASQIFITYICNEDCYLAGILELQSAPSAETFVATEDSKGGHPSSSETKEEQNKEDGTFPGLTGTLKFCPLEKAQKLWKENPSEIYPIMNTTTRTRLALIICNTEFQHLSPRVGAQVDLREMKLLLEDLGYTVKVKENLTALEMVKEVKEFAACPEHKTSDSTFLVFMSHGIQEGICGTTYSNEVSDILKVDTIFQMMNTLKCPSLKDKPKVIIIQACRGEKQGVVLLKDSVRDSEEDFLTDAIFEDDGIKKAHIEKDFIAFCSSTPDNVSWRHPVRGSLFIESLIKHMKEYAWSCDLEDIFRKVRFSFEQPEFRLQMPTADRVTLTKRFYLFPGH

Columns and labels:
[1] = target: apoptosis-associated speck-like protein containing a caspase activation and recruitment domain (ASC), human, endogenous in THP1 cells (human (endogenous in THP1)) (UniProt Q9ULZ3); assay: co-IP; lysates of LPS-primed THP1 cells or BMDMs treated with the indicated concentrations of 8A for 1 h, then ATP for 15 min; endogenous proteins; precipitating antibody not told
[2] = target: T1, apoptosis-associated speck-like protein containing a caspase activation and recruitment domain (ASC), mouse, endogenous in bone marrow-derived macrophages (mouse (endogenous in BMDM)) (UniProt Q9EPB4); assay: as above
T1 sequence: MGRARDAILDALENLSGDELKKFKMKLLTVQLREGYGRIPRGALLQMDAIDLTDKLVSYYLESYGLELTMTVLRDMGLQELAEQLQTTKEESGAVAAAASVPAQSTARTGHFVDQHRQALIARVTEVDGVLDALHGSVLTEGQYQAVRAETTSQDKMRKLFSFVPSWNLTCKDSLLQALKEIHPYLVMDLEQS

Row | Molecule | binding [1] | binding [2]
1 | caspase-1 (pro-CASP1), human, endogenous in THP1 cells (from UniProt P29466 1-404) | binds | 
2 | B1 |  | binds
